In PubChem BioAssay AID1439 (NMMLSC, 2008):
In all, about 220,000 compounds went through this assay and about 770 (0.35%) were called active. The shares of active, inactive and inconclusive entries below differ from those in the screen. Rule as the data show it: active = binding response below about 49% or above about 150%; inconclusive = no clear call, values can overlap the other calls; inactive = in between.

Sequences of proteins named here, by UniProt entry; tags and fusion partners are left off.
UniProt P09471, whole entry, looked up: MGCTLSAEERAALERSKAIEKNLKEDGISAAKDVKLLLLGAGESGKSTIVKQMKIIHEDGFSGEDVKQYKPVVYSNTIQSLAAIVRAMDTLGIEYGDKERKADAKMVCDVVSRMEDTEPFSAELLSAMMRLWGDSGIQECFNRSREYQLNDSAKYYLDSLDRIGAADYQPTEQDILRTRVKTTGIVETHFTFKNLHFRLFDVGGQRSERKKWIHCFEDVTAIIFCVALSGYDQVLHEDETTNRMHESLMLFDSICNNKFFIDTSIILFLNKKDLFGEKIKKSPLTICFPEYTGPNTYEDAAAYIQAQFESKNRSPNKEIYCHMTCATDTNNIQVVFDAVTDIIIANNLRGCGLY

These compounds were tested against Guanine nucleotide-binding protein G(o) subunit alpha (Homo sapiens) (UniProt P09471) (assay: RGS7-Galphao binding modulators, primary screen, biochemical, multiplexed bead flow cytometry (AID 1439;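 also: fluorescent Galphao held in activated GDP-AlF4 state binding bead-coupled RGS7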)). Conditions: at 10 µM, actives lie on both sides.

Structure (SMILES)	binding response (% of control)
Cc1c(C(=O)OCC(=O)Nc2ccc(C(N)=O)cc2)cccc1[N+](=O)[O-]	inconclusive: 125%
COc1cccc(/C=N/n2cnc3c(cnn3-c3ccccc3)c2=O)c1	inconclusive: 86.6%
O=C(NCCc1c[nH]c2ccccc12)C(=O)NCC1OCCN1S(=O)(=O)c1cc(F)ccc1F (stereo not drawn)	inconclusive: 31.6%
C=CCn1c(COc2cc(C)ccc2C(C)C)nnc1SCC(=O)c1c(N)n(C)c(=O)n(C)c1=O	inactive: 104%
CC1CCc2c(nc3sc4c(c3c2N)CCCC4)C1 (stereo not drawn)	inactive: 99.7%
C1CCN(Cc2nnnn2CC2CCCO2)CC1 (stereo not drawn)	inactive: 99.7%
O=C(c1ccc(S(=O)(=O)N2CCOCC2)cc1)N(c1ccccn1)C1CCCCC1	inconclusive: 128%
CC(C)Cc1nnc(NC(=O)CN2C(=O)c3ccccc3C2=O)s1	inconclusive: 115%
CC(SCC(=O)O)c1nc2ccccc2[nH]1 (stereo not drawn)	inconclusive: 96.3%
CC1(C)CC(=O)C(C2=NC3(CCCCCC3)Cc3ccccc32)=C(O)C1	inconclusive: 118%
COc1ccc(NS(=O)(=O)c2cccc(N/C(=N\S(=O)(=O)c3ccccc3)c3ccc(F)cc3)c2)cc1	inactive: 96.7%
CC(C)[C@@H](CO)NC(=O)c1ccc2c3n(nc2c1)-c1ccccc1CO3	inconclusive: 107%
CC(O)CNc1nc2sc3c(c2c(=O)n1Cc1ccco1)CCCCC3 (stereo not drawn)	inconclusive: 65.3%
COc1ccc(CCN2C(=O)CSC2=Nc2ccc(C(C)C)cc2)cc1OC	inconclusive: 155%
CCN(c1ccccc1)S(=O)(=O)c1ccc(Cl)c(C(=O)NCC2CCCO2)c1 (stereo not drawn)	inactive: 102%
C=CCn1c(C(CCCC)CC(C)O)n[nH]c1=S (stereo not drawn)	inactive: 85%
CCn1cc(CN2CCc3c([nH]c4ccccc34)C2c2cccc(OC)c2OC)c(C)n1 (stereo not drawn)	inactive: 106%
COc1ccc(NC(=O)Cn2c(NCC(C)O)nc3ccccc32)cc1Cl (stereo not drawn)	inactive: 114%
COc1ccc(OC)c(S(=O)(=O)NCCc2csc(-c3cccnc3)n2)c1	inconclusive: 96%
CCOC(=O)C(CC)(CC)C(=O)/C=C/c1ccc(OC)cc1	inconclusive: 140%
[O-]/C(=C(\C(=S)Nc1cccc2ccccc12)[n+]1ccccc1)c1ccc(OC(F)F)cc1	inconclusive: 95.6%
COc1ccc(-c2cc3cc(OC)c(OC)cc3c(C)n2)cc1	inconclusive: 97.2%

Structure (SMILES)	binding response (% of control)
COc1cc(-c2nnc(Sc3ccc(C(F)(F)F)cc3[N+](=O)[O-])o2)cc(OC)c1OC	inactive: 106%
NS(=O)(=O)c1ccc(Nc2nc(-c3ccc(F)cc3)cs2)cc1	inconclusive: 121%
CC(=O)C1=C(Nc2ccccc2)CC(C)(O)C(C(C)=O)C1c1ccccc1 (stereo not drawn)	inconclusive: 74.6%
CC(C)CC(NC(N)=O)C(=O)NCCc1ccc(Cl)cc1 (stereo not drawn)	inactive: 98.2%
O=[N+]([O-])c1ccc([N+](=O)[O-])c(Nc2ccc(N3CCOCC3)cc2)c1	inconclusive: 104%
CCC(C)[C@H](NC(=O)NCc1ccc(F)cc1)C(=O)O (stereo partly drawn)	inconclusive: -142%
CCCOc1ccc(CCCN=C(N)N)cc1Cl	inconclusive: 98.7%
C/C(=N\Nc1ccc(S(=O)(=O)N2CCOCC2)cc1[N+](=O)[O-])C(C)C	inconclusive: 104%
O=C(CCS(=O)(=O)c1ccc(Cl)cc1)NCCc1c[nH]c2ccccc12	inconclusive: 112%
CCCCNC(=O)c1cc2cccc([N+](=O)[O-])c2[nH]1	inconclusive: 134%
Nc1nc(NCc2ccco2)nc(N2CCOCC2)c1[N+](=O)[O-]	inconclusive: 48.3%
Cc1cccc(N2CCN(C(=O)Cn3sc4nc(C)cc(C)c4c3=O)CC2C)c1 (stereo not drawn)	inactive: 104%
O=C(O)c1nn(CCSc2ccccc2F)c(=O)c2ccccc12	inconclusive: 94.1%
CN(C)S(=O)(=O)c1cccc(NC(=O)COC(=O)c2cc(=O)c3ccccc3o2)c1	inconclusive: 77.2%
Fc1ccccc1/C=N/NC(=S)Nc1ccc(Cl)cc1Cl	inactive: 105%
CC(C)NC(=O)C(=O)NCCN1CCN(C(=O)c2ccc(C(C)(C)C)cc2)CC1	inconclusive: 87.4%
Cc1cc(C)c2nc(C)cc(Nc3ccc(C(=O)N(C)C)cc3)c2c1	inconclusive: 95.9%
CC(=O)N/C(=C/c1ccc(OS(=O)(=O)c2ccc(C)cc2)cc1)C(=O)NCCCO	inconclusive: 98.3%
CC[n+]1ccc(C(=O)NCc2ccccc2)cc1	inconclusive: 94.8%
CCC(C)NC(=O)CSc1ncnc2sccc12 (stereo not drawn)	inconclusive: 92.7%
O=C1CCCC(O)=C1N=Nc1ccc(S(=O)(=O)N2CCOCC2)cc1	inconclusive: 63%
NNC(=O)Cn1nnc(-c2ccc(C(F)(F)F)cc2)n1	inconclusive: 87.8%

Structure (SMILES)	binding response (% of control)
COc1ccc(CNC(=O)CN(CC2CCCO2)C(=O)CNS(=O)(=O)c2ccccc2)cc1 (stereo not drawn)	active: 209% [activator]
Cc1noc(C)c1S(=O)(=O)N1CCC(C(=O)c2ccccc2)CC1	inconclusive: 99.9%
N#CCCCn1c(O)c(N=NC(=O)C(O)c2ccccc2)c2ccccc21 (stereo not drawn)	inconclusive: 210%
COc1cc(OC)c(-c2nc3c[n+](CC(=O)c4ccccc4)ccc3n2C)cc1OC	inactive: 101%
CCOc1cc(CNCc2ccncc2)cc(Cl)c1OC	inactive: 97.9%
CCN(CC)C(=O)C12C(=O)Oc3ccccc3C1C2(C)C(=O)c1ccc(F)cc1 (stereo not drawn)	inconclusive: 109%
CN(C)c1cc[n+](CC(=O)c2ccc(OC(F)F)cc2)cc1	inconclusive: 91.9%
Cc1nn(C(C)(C)C)c(C)c1/C=N/OC(=O)Nc1ccc(Cl)c(Cl)c1	inconclusive: 90.3%
COc1cc(CCCN2C(N)=NC[C@@H]2Cc2ccc(O)cc2)cc(OC)c1OC	inconclusive: 95.2%
CC(C)Nc1ccc(Cl)cc1[N+](=O)[O-]	inconclusive: 107%
Cc1cc(NC(=O)COC(=O)c2cccc(S(=O)(=O)N(C)C3CCCCC3)c2)no1	inconclusive: 88.2%
CCCN1CCC(=O)N([C@H](CSc2ccc(Br)cc2)c2ccccc2)CC1	inconclusive: 104%
CCC(=O)c1c(NC(CC)CO)cc(C)oc1=O (stereo not drawn)	inactive: 86.5%
O=C(CO/N=C/c1ccccc1OC(F)F)NCc1ccco1	inconclusive: 117%
Brc1cccc(OCCCCN2CCCCC2)c1	inactive: 102%
Cc1ccc(C)c(NC(=S)/C(=C(\[O-])c2ccc(OC(F)F)cc2)[n+]2ccccc2)c1	inconclusive: 106%
CCc1cc2ccc(OC)cc2nc1SCC(=O)N1CCN(C(=O)c2ccco2)CC1	inconclusive: 117%
Cc1nc(N2CCOCC2)nc(OCCN2CCOCC2)c1[N+](=O)[O-]	inactive: 100%
COc1ccc(OC)c(-c2csc(NC(=O)C3=NNC(=O)CC3)n2)c1	inconclusive: 94.1%
COc1cc(/C=N/NC(=O)c2cc(-c3ccco3)nc3ccccc23)cc(OC)c1O	inconclusive: 194%
Cc1ccc(Nc2ncnc(-n3cccc3)n2)cc1Cl	inconclusive: 235%
Cc1cccc(OCC(=O)Nc2ccc(N3CCN(C(=O)c4ccco4)CC3)cc2)c1	inactive: 99%

Single entries from above:
`Cc1nc(N2CCOCC2)nc(OCCN2CCOCC2)c1[N+](=O)[O-]` – binding response (% of control): inactive: 100%
`CC(O)CNc1nc2sc3c(c2c(=O)n1Cc1ccco1)CCCCC3` (stereo not drawn) – binding response (% of control): inconclusive: 65.3%
`O=C(NCCc1c[nH]c2ccccc12)C(=O)NCC1OCCN1S(=O)(=O)c1cc(F)ccc1F` (stereo not drawn) – binding response (% of control): inconclusive: 31.6%
`O=[N+]([O-])c1ccc([N+](=O)[O-])c(Nc2ccc(N3CCOCC3)cc2)c1` – binding response (% of control): inconclusive: 104%

(more compounds)

Structure (SMILES)	binding response (% of control)
CC(=O)NNC(=S)NCCc1ccccc1	inactive: 135%
CCSc1nnc(NC(=O)CSc2nc3c(c(=O)n2CCOC)SC(C)C3)s1 (stereo not drawn)	inconclusive: 124%
O=C(CCCCCNC(=S)Nc1ccccc1)C[N+](=O)[O-]	inconclusive: 105%
CC(O)c1nc2ccccc2n1CC(=O)Nc1ccc(F)cc1Cl (stereo not drawn)	inconclusive: 82.6%
CCN(CCNC(=O)C1=C(C)C(=O)OC12CCC(C)CC2)c1ccccc1 (stereo not drawn)	inconclusive: 86.1%
COc1ccc(C(=O)N/N=C(\C)CC(=O)Nc2ccc3c(c2)OCO3)cc1	inconclusive: 113%
CC(=O)c1ccc([C@H]2C[C@@]34CN(C(=O)OC(C)(C)C)S(=O)(=O)[C@H]3C[C@H]2O4)cc1	inconclusive: 114%
CCCCOC(=O)c1ccc(NC(=O)C(=O)NCCN(CC)CC)cc1	inconclusive: 62%
CN1C(C(=O)NCc2ccc(OC(F)(F)F)cc2)CC2Cn3c(nc4ccccc43)C21 (stereo not drawn)	inconclusive: 103%
N=c1n(CCCOc2ccc(Br)cc2)c2ccccc2n1CC(N)=O	inconclusive: 60.5%
CCOc1ccccc1NC(=O)Nc1ccon1	inconclusive: 78.9%
O=C(COC(=O)c1ccc(Cl)nc1)Nc1cc(S(=O)(=O)N2CCCCC2)ccc1Cl	inconclusive: 114%
Cn1cccc1/C=N/NC(=O)CNc1ccc2ccccc2c1	inconclusive: 98.6%
CC(C)(C)c1ccc(OCCOc2ccc(C(C)(C)C)cc2NC=O)c(NC=O)c1	inconclusive: 74.4%
Cc1nc(-c2ccccc2)sc1C1(C)CC(c2c(Cl)cccc2Cl)=NO1 (stereo not drawn)	inconclusive: 70.3%
COc1ccc(-c2nnnn2C(C)C)cc1S(=O)(=O)Nc1ccccc1	inconclusive: 85.9%
O=C(c1ccccc1Br)N1CCCC(c2nc(-c3cccs3)no2)C1 (stereo not drawn)	inconclusive: 83.9%
CN1CCN(C(=O)/C=C/c2cn(-c3ccccc3)nc2-c2ccc3c(c2)OCCO3)CC1	inconclusive: 119%
COc1cccc(NC(=S)/C(=C(\[O-])c2ccc(OC(F)F)cc2)[n+]2ccccc2)c1	inconclusive: 95.2%
Cc1nc(-c2ccc(C#N)cc2)cs1	inconclusive: 127%
Cc1ccc(-c2csc(/C=C3\SC(C)C(=O)N3CC(=O)Nc3ccccc3F)n2)cc1 (stereo not drawn)	inconclusive: 90.3%
Cn1ncc(C(=O)Nc2ccc(OC(F)(F)F)cc2)c1-n1cccc1	inconclusive: 90%
